Chains of the proteins cited; added tags and fusions are not shown. Lines headed by an entry give the natural chain unless they say otherwise; changes in a name come on top.
UniProt Q7Z4W1: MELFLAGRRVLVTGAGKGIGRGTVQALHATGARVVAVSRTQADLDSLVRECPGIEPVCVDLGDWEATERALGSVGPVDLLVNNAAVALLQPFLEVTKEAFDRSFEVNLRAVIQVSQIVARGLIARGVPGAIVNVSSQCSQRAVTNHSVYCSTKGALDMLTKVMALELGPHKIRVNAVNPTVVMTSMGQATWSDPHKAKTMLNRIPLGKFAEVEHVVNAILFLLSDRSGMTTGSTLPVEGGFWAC
UniProt Q9UHI6: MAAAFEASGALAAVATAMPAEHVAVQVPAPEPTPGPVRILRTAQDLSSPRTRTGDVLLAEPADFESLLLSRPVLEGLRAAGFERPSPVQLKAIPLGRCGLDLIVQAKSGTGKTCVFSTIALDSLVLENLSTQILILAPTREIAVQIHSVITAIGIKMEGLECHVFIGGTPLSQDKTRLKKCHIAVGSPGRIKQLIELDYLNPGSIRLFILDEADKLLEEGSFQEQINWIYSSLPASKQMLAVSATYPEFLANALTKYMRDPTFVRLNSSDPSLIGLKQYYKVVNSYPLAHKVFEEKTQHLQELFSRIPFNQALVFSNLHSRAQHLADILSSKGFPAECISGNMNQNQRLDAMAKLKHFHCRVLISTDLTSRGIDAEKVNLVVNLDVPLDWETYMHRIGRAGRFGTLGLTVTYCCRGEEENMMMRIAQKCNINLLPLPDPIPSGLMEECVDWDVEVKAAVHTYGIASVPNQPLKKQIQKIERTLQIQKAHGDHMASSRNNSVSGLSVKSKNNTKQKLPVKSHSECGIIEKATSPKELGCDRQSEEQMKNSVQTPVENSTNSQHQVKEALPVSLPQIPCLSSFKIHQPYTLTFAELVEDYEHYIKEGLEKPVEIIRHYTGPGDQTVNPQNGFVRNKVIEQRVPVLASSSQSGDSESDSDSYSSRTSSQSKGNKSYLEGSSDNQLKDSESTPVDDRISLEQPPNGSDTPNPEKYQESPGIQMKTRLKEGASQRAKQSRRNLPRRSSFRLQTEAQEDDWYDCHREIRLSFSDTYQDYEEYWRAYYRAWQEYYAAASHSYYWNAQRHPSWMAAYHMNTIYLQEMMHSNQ
UniProt Q5VZ89: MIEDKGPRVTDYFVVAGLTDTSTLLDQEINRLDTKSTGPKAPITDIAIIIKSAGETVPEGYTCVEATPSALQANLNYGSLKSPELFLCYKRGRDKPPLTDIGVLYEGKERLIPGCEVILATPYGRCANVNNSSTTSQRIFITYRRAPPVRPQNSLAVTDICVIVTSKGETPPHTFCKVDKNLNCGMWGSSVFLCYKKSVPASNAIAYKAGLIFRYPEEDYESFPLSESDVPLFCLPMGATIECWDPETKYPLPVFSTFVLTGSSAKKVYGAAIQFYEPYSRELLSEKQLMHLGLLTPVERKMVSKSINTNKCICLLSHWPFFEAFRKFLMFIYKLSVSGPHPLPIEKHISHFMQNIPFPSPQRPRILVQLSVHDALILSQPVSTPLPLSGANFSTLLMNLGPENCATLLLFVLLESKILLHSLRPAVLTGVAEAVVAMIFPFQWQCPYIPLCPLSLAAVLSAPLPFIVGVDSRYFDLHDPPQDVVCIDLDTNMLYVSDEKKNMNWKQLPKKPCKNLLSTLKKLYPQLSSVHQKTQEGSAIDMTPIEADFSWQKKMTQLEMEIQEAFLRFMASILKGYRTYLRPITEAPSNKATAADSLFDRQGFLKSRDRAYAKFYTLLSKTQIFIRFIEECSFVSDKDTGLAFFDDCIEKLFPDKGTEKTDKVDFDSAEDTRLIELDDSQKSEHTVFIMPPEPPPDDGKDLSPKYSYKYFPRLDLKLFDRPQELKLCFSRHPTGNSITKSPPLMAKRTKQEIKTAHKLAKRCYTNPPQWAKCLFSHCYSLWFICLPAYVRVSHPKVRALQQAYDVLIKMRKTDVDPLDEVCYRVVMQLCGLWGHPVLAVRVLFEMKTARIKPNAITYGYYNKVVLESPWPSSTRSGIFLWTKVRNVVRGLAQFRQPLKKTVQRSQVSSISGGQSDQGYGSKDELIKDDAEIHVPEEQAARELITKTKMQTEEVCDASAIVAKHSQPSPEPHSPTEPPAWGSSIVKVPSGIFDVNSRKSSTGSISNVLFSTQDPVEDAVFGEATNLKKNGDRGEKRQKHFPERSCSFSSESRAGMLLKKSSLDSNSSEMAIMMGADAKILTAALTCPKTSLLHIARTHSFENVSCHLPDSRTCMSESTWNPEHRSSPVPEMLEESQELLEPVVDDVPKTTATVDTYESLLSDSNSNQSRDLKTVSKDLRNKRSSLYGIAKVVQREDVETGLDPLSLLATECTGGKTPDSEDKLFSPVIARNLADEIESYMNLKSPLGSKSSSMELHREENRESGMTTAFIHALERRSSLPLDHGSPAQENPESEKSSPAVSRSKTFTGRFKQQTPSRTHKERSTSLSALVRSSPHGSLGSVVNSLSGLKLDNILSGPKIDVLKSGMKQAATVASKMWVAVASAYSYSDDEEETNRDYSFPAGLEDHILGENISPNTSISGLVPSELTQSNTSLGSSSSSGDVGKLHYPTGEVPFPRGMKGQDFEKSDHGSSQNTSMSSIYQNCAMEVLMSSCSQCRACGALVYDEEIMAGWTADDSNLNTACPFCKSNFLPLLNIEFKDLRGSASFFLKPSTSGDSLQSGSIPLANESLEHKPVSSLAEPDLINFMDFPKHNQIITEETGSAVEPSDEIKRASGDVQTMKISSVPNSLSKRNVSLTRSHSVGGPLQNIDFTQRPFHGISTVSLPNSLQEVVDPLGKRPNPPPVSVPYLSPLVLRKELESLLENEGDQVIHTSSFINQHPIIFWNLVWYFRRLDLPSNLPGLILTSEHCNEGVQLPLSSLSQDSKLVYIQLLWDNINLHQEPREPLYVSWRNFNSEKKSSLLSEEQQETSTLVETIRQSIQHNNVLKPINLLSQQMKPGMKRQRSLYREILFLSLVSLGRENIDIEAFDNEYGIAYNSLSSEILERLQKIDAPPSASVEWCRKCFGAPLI
UniProt Q8TDD1, whole entry, looked up: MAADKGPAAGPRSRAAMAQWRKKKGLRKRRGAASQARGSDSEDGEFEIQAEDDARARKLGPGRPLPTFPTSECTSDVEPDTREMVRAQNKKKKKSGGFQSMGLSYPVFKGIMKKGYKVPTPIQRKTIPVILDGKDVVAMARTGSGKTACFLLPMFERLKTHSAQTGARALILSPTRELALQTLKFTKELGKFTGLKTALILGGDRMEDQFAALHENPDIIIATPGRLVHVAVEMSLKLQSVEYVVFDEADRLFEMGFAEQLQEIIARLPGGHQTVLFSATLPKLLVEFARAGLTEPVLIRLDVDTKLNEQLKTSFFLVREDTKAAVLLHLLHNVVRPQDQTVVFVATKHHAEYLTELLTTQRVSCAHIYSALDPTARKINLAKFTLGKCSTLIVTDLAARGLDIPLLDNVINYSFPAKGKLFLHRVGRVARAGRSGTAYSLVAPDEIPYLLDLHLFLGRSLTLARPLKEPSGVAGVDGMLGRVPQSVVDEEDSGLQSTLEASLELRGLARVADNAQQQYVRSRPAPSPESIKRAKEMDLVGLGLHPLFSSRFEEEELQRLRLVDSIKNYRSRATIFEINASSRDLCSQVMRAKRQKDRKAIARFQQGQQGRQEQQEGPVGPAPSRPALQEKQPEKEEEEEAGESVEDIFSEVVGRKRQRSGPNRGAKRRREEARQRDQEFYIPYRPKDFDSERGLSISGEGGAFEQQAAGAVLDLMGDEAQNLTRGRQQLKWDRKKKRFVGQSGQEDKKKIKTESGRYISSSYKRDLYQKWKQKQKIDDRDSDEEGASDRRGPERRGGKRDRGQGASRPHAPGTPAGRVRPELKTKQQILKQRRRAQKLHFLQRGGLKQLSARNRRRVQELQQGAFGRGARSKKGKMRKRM
UniProt Q9H1C7: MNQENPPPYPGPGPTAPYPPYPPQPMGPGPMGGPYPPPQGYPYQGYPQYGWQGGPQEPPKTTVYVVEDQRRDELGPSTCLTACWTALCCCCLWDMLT
UniProt P32321: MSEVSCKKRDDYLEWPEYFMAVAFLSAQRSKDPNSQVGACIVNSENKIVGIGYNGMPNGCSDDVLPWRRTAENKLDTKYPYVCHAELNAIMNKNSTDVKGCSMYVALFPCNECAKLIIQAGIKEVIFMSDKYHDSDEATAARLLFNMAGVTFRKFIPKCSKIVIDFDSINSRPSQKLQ
UniProt Q8N465: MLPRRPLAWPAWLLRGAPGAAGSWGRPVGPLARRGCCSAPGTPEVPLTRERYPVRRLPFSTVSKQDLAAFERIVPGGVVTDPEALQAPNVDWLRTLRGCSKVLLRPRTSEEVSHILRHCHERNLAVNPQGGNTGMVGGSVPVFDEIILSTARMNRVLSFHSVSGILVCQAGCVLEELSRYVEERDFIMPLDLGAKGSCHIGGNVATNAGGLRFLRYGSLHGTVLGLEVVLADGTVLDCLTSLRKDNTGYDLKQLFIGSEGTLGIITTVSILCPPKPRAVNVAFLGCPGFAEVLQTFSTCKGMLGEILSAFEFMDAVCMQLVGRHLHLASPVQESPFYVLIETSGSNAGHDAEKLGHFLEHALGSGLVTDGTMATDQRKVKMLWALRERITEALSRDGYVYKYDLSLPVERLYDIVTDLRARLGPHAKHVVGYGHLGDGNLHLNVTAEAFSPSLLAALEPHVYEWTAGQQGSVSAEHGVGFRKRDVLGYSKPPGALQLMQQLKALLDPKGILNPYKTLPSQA
UniProt P61803: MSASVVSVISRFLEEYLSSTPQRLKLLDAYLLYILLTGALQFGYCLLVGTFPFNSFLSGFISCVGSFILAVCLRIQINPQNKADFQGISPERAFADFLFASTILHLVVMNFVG
UniProt Q9GZR7: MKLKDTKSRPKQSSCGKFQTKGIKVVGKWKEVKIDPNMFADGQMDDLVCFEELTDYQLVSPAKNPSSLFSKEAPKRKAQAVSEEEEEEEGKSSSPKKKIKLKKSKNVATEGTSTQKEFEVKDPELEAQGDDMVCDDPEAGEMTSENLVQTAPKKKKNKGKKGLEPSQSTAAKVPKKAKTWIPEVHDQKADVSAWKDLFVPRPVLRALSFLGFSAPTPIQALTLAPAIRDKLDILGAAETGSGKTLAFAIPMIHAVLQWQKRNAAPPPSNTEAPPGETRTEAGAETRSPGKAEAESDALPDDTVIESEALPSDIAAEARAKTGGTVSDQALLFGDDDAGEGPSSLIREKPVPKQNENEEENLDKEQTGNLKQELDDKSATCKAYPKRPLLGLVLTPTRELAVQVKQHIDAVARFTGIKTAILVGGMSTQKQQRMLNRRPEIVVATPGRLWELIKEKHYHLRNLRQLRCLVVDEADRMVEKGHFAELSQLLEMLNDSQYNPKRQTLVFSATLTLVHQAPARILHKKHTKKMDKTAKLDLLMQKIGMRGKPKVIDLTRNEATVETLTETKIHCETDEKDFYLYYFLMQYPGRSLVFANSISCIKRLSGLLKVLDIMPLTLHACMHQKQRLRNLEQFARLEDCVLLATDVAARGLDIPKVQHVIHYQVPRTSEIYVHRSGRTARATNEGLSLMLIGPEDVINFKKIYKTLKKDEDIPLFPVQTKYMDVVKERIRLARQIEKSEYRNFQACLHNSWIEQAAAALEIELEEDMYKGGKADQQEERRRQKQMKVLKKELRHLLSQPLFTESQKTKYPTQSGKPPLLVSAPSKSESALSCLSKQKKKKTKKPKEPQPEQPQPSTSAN
UniProt P07108: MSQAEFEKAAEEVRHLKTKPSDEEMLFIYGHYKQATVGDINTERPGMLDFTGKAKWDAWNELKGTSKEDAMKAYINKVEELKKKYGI
UniProt Q96GQ7: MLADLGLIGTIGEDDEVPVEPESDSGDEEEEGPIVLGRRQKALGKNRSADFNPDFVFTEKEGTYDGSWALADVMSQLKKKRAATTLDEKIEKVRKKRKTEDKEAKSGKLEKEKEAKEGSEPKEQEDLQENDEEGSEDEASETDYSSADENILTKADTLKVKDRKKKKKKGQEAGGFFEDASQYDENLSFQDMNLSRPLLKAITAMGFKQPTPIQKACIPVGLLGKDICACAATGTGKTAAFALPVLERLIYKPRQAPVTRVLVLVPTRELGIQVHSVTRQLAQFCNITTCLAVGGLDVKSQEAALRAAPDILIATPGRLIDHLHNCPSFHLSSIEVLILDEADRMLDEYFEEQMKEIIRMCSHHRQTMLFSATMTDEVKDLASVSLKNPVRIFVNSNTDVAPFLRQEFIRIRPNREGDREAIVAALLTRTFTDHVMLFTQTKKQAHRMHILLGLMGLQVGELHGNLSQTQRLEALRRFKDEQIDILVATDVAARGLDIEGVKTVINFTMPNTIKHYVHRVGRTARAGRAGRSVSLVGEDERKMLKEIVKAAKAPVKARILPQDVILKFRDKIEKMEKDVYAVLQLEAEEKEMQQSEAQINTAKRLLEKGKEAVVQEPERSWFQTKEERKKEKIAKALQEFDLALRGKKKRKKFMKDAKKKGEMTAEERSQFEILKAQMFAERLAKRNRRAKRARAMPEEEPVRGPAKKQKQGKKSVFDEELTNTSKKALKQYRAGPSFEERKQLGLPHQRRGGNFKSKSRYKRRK

This is one part of the list.
Each target was assayed with C[C@@H](Oc1cc(-c2cnn(C3CCNCC3)c2)cnc1N)c1c(Cl)ccc(F)c1Cl [crizotinib] (assay: log2 fold change, soluble protein after heating vs DMSO (PISA); higher = thermal stabilisation; K562 lysate, 10 uM; active = over 0.2 and 3.5 SD of the protein, either way, in both replicates (recomputed)).
How it was run: (§1)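 Log-two fold change in thermal stability relative to solvent controls is reported from duplicates. For each sample, crude K562 extract from dounce-homogenised pellets in PBS pH 7.4 with 1 mM MgCl2, at 1 mg/mL protein, was treated with 10 μM compound for 30 min. Aliquots heated for 3 min across 48°C-58°C were pooled, brought to 0.5% NP-40 at 4°C and cleared at 21,000xg for 90 min. The supernatant was quantified by TMTpro 16plex LC-MS/MS with channel sums equalised.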
With DDRGK1 (UniProt Q96HY6) the log2 fold change was inactive: -0.033.
With DCTN1 (UniProt Q14203) the log2 fold change was inactive: -0.005.
DCTN2 (UniProt Q13561) was tested, and the log2 fold change was inactive: -0.04.
With DDX21 (UniProt Q9NR30) the log2 fold change was inactive: -0.037.
DCXR (UniProt Q7Z4W1) was tested, and the log2 fold change was inactive: 0.009.
In the case of DDX20 (UniProt Q9UHI6), the log2 fold change is reported as inactive: -0.088.
DEF6 (UniProt Q9H4E7) was tested, and the log2 fold change was inactive: -0.095.
In the case of DCTN3 (UniProt O75935), the log2 fold change is reported as inactive: 0.008.
DENND4C (UniProt Q5VZ89) was tested, and the log2 fold change was inactive: -0.043.
In the case of DDB1 (UniProt Q16531), the log2 fold change is reported as inactive: 0.027.
DFFA (UniProt O00273) was tested, and the log2 fold change was inactive: 0.041.
With DCP2 (UniProt Q8IU60) the log2 fold change was inactive: 0.038.
With DDX54 isoform 2 (UniProt Q8TDD1) the log2 fold change was inactive: -0.057.
In the case of CYSTM1 (UniProt Q9H1C7), the log2 fold change is reported as inactive: -0.122.
With DEK (UniProt P35659) the log2 fold change was inactive: 0.037.
DCTD isoform 2 (UniProt P32321) was tested, and the log2 fold change was inactive: 0.003.
In the case of DDHD1 (UniProt Q8NEL9), the log2 fold change is reported as inactive: -0.116.
CYP24A1 (UniProt Q07973) was tested, and the log2 fold change was inactive: -0.289.
In the case of D2HGDH (UniProt Q8N465), the log2 fold change is reported as inactive: 0.012.
In the case of DAD1 (UniProt P61803), the log2 fold change is reported as inactive: -0.068.
With DERL1 (UniProt Q9BUN8) the log2 fold change was inactive: -0.027.
In the case of DECR1 (UniProt Q16698), the log2 fold change is reported as inactive: 0.003.
In the case of DCTPP1 (UniProt Q9H773), the log2 fold change is reported as inactive: 0.013.
In the case of DDX24 (UniProt Q9GZR7), the log2 fold change is reported as inactive: 0.007.
With DDX56 (UniProt Q9NY93) the log2 fold change was inactive: -0.024.
In the case of DARS (UniProt P14868), the log2 fold change is reported as inactive: -0.033.
In the case of DBN1 (UniProt Q16643), the log2 fold change is reported as inactive: 0.015.
With DDX39A (UniProt O00148) the log2 fold change was inactive: 0.006.
For DCAF15 (UniProt Q66K64), the log2 fold change was inactive: -0.096.
DBI isoform 5 (UniProt P07108) was tested, and the log2 fold change was inactive: 0.022.
In the case of DDX46 (UniProt Q7L014), the log2 fold change is reported as inactive: -0.041.
DDX10 (UniProt Q13206) was tested, and the log2 fold change was inactive: 0.035.
In the case of DCUN1D4 isoform 3 (UniProt Q92564), the log2 fold change is reported as inactive: -0.02.
With DDX27 (UniProt Q96GQ7) the log2 fold change was inactive: -0.049.
For DENND4A isoform 2 (UniProt Q7Z401), the log2 fold change was inactive: -0.038.
With DAG1 (UniProt Q14118) the log2 fold change was inactive: -0.021.

These targets were tested with C[C@H](C1=CC=C(C=C1)C(=O)NC2=C3C=CNC3=NC=C2)N in the same assay as above.
How it was run: as §1
DDRGK1 (UniProt Q96HY6) was tested, and the log2 fold change was inactive: 0.042.
DCTN1 (UniProt Q14203) was tested, and the log2 fold change was inactive: 0.027.
DCTN2 (UniProt Q13561) was tested, and the log2 fold change was inactive: 0.113.
In the case of DDX21 (UniProt Q9NR30), the log2 fold change is reported as inactive: -0.007.
DCXR (UniProt Q7Z4W1) was tested, and the log2 fold change was inactive: -0.046.
In the case of DDX20 (UniProt Q9UHI6), the log2 fold change is reported as inactive: 0.029.
DEF6 (UniProt Q9H4E7) was tested, and the log2 fold change was inactive: -0.049.
DCTN3 (UniProt O75935) was tested, and the log2 fold change was inactive: 0.016.
DENND4C (UniProt Q5VZ89) was tested, and the log2 fold change was inactive: -0.006.
In the case of DDB1 (UniProt Q16531), the log2 fold change is reported as inactive: 0.
With DFFA (UniProt O00273) the log2 fold change was inactive: -0.001.
With DCP2 (UniProt Q8IU60) the log2 fold change was inactive: 0.021.
For DDX54 isoform 2 (UniProt Q8TDD1), the log2 fold change was inactive: -0.025.
For CYSTM1 (UniProt Q9H1C7), the log2 fold change was inactive: -0.027.
For DEK (UniProt P35659), the log2 fold change was inactive: -0.009.
With DCTD isoform 2 (UniProt P32321) the log2 fold change was inactive: -0.021.
In the case of DDHD1 (UniProt Q8NEL9), the log2 fold change is reported as inactive: -0.019.
In the case of CYP24A1 (UniProt Q07973), the log2 fold change is reported as active: -0.462.
For D2HGDH (UniProt Q8N465), the log2 fold change was inactive: -0.018.
With DAD1 (UniProt P61803) the log2 fold change was inactive: -0.102.
With DERL1 (UniProt Q9BUN8) the log2 fold change was inactive: -0.122.
For DECR1 (UniProt Q16698), the log2 fold change was inactive: -0.008.
DCTPP1 (UniProt Q9H773) was tested, and the log2 fold change was inactive: 0.036.
In the case of DDX24 (UniProt Q9GZR7), the log2 fold change is reported as inactive: -0.032.
In the case of DDX56 (UniProt Q9NY93), the log2 fold change is reported as inactive: -0.094.
In the case of DARS (UniProt P14868), the log2 fold change is reported as inactive: -0.036.
With DBN1 (UniProt Q16643) the log2 fold change was inactive: 0.019.
With DDX39A (UniProt O00148) the log2 fold change was inactive: -0.022.
In the case of DCAF15 (UniProt Q66K64), the log2 fold change is reported as inactive: -0.065.
In the case of DBI isoform 5 (UniProt P07108), the log2 fold change is reported as inactive: 0.206.
For DDX46 (UniProt Q7L014), the log2 fold change was inactive: -0.07.
For DDX10 (UniProt Q13206), the log2 fold change was inactive: 0.037.
With DCUN1D4 isoform 3 (UniProt Q92564) the log2 fold change was inactive: 0.001.
In the case of DDX27 (UniProt Q96GQ7), the log2 fold change is reported as inactive: 0.015.
DENND4A isoform 2 (UniProt Q7Z401) was tested, and the log2 fold change was inactive: -0.206.
DAG1 (UniProt Q14118) was tested, and the log2 fold change was inactive: -0.092.

Source: the supplement of paper PMC10849652
